Measurements published in paper PMC10899302.
No constants are given. Whether binding was seen depends on the method and setting. Binding seen in cells or lysates may run through a third protein. Some results given as binding are weak or reduced against the parent protein; the word gives no strength.

The chains behind the UniProt entries cited, without tags or fusion partners.
UniProt Q9UHX1: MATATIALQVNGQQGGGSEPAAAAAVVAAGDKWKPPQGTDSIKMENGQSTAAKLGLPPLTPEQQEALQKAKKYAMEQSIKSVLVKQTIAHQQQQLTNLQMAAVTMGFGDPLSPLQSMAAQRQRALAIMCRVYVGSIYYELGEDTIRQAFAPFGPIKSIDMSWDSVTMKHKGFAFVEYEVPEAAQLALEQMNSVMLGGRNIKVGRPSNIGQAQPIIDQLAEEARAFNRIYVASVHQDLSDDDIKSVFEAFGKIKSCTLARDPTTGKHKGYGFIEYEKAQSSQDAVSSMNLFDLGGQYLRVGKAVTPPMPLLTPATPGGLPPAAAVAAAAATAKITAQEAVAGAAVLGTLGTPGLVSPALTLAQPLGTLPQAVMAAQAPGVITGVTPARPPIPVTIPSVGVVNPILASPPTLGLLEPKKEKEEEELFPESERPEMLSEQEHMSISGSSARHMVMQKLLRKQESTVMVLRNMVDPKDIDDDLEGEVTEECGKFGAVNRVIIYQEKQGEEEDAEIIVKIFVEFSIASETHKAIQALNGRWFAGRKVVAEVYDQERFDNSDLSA
UniProt P11940: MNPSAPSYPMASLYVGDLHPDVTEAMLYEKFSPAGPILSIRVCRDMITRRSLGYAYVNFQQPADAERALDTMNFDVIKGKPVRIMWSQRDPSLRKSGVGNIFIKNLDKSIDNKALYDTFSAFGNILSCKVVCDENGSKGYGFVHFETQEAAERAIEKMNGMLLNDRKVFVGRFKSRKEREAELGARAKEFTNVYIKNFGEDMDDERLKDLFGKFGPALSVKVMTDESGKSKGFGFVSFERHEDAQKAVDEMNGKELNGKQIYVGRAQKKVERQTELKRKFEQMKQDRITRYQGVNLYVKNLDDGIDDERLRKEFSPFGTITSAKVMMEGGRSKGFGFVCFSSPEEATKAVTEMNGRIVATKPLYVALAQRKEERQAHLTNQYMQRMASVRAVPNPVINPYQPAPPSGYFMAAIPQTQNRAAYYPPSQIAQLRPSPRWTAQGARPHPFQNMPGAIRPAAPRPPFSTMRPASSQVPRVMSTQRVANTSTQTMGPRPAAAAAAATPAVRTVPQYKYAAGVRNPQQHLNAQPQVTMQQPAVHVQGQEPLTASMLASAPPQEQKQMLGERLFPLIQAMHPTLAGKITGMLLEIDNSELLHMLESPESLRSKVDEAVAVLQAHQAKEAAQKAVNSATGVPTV

Biological target: Poly(U) binding splicing factor 60 (PUF60), Flag-tagged (UniProt Q9UHX1)
Assay: co-IP; FLAG antibody (IgG as control) on protein A/G beads, incubated with total protein extraction of OVCAR8 and ES-2 cells transfected with PUF60-Flag plasmid, overnight at 4 °C; washed 3 times with extraction buffer; western blotting

binding: binds
Substance: poly(A)-binding protein cytoplasmic 1 (PABPC1) (from UniProt P11940 1-636)
